Some of the results follow.
Columns and labels:
Assay in all cases: glycan array binding signal (z-score within array); higher = stronger binding
Details in all cases: glycan notation: IUPAC condensed, linker removed
Fuc(a1-3)GlcNAc = biological target: Fuc(a1-3)GlcNAc
In short: (§1)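 The binding signal is a Z-score computed within each array and averaged over linkers. Arrays of the same protein sequence at different concentrations or buffers were also averaged together. Data originate from 3228 arrays in the Consortium for Functional Glycomics database, kept only where the protein sequence was available.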

[1] = biological target: Fuc(a1-3)[Gal(b1-4)]Glc6S
In short: as §1

[2] = biological target: Fuc(a1-3)[Gal(b1-4)]GlcNAc
In short: as §1

[3] = biological target: Fuc(a1-3)[Gal(b1-4)]GlcNAc(b1-2)Man
In short: as §1

[4] = biological target: Fuc(a1-3)[Gal(b1-4)]GlcNAc(b1-2)Man(a1-3)[Fuc(a1-3)[Gal(b1-4)]GlcNAc(b1-2)Man(a1-6)]Man(b1-4)GlcNAc(b1-4)GlcNAc
In short: as §1

[5] = biological target: Fuc(a1-3)[Gal(b1-4)]GlcNAc(b1-2)Man(a1-3)[Fuc(a1-3)[Gal(b1-4)]GlcNAc(b1-2)Man(a1-6)]Man(b1-4)GlcNAc(b1-4)[Fuc(a1-6)]GlcNAc
In short: as §1

[6] = biological target: Fuc(a1-3)[Gal(b1-4)]GlcNAc(b1-3)Gal(b1-3)[Fuc(a1-4)]GlcNAc
In short: as §1

[7] = biological target: Fuc(a1-3)[Gal(b1-4)]GlcNAc(b1-3)Gal(b1-4)[Fuc(a1-3)]GlcNAc
In short: as §1

[8] = biological target: Fuc(a1-3)[Gal(b1-4)]GlcNAc(b1-3)Gal(b1-4)[Fuc(a1-3)]GlcNAc(b1-3)Gal(b1-4)[Fuc(a1-3)]GlcNAc
In short: as §1

[9] = biological target: Fuc(a1-3)[Gal(b1-4)]GlcNAc(b1-3)GalNAc
In short: as §1

[10] = biological target: Fuc(a1-3)[Gal(b1-4)]GlcNAc(b1-6)GalNAc
In short: as §1

[11] = biological target: Fuc(a1-3)[Gal(b1-4)]GlcNAc(b1-6)[Gal(b1-3)GlcNAc(b1-3)]Gal(b1-4)Glc
In short: as §1

[12] = biological target: Fuc(a1-3)[Gal(b1-4)]GlcNAc6S
In short: as §1

[13] = biological target: Fuc(a1-3)[Gal3S(b1-4)]Glc
In short: as §1

[14] = biological target: Fuc(a1-3)[Gal3S(b1-4)]GlcNAc
In short: as §1

[15] = biological target: Fuc(a1-3)[Gal3S(b1-4)]GlcNAc6S
In short: as §1

[16] = biological target: Fuc(a1-3)[GalNAc(b1-4)]GlcNAc
In short: as §1

[17] = biological target: Fuc(a1-3)[GalNAc(b1-4)]GlcNAc6S
In short: as §1

Fuc(a1-4)GlcNAc = biological target: Fuc(a1-4)GlcNAc
In short: as §1

Fuc(b1-3)GlcNAc = biological target: Fuc(b1-3)GlcNAc
In short: as §1

Gal(a1-2)Gal = biological target: Gal(a1-2)Gal
In short: as §1

Gal(a1-3)Gal = biological target: Gal(a1-3)Gal
In short: as §1

Gal(a1-3)Gal(b1-3)GlcNAc = biological target: Gal(a1-3)Gal(b1-3)GlcNAc
In short: as §1

[18] = biological target: Gal(a1-3)Gal(b1-3)GlcNAc(b1-2)Man
In short: as §1

[19] = biological target: Gal(a1-3)Gal(b1-3)GlcNAc(b1-2)Man(a1-3)[Gal(a1-3)Gal(b1-3)GlcNAc(b1-2)Man(a1-6)]Man(b1-4)GlcNAc(b1-4)GlcNAc
In short: as §1

[20] = biological target: Gal(a1-3)Gal(b1-3)GlcNAc(b1-3)GalNAc
In short: as §1

[21] = biological target: Gal(a1-3)Gal(b1-3)GlcNAc(b1-6)GalNAc
In short: as §1

[22] = biological target: Gal(a1-3)Gal(b1-3)[Fuc(a1-4)]GlcNAc(b1-2)Man(a1-3)[Gal(a1-3)Gal(b1-3)[Fuc(a1-4)]GlcNAc(b1-2)Man(a1-6)]Man(b1-4)GlcNAc(b1-4)GlcNAc
In short: as §1

Gal(a1-3)Gal(b1-4)Glc = biological target: Gal(a1-3)Gal(b1-4)Glc
In short: as §1

Gal(a1-3)Gal(b1-4)GlcNAc = biological target: Gal(a1-3)Gal(b1-4)GlcNAc
In short: as §1

[23] = biological target: Gal(a1-3)Gal(b1-4)GlcNAc(b1-2)Man
In short: as §1

[24] = biological target: Gal(a1-3)Gal(b1-4)GlcNAc(b1-2)Man(a1-3)[Gal(a1-3)Gal(b1-4)GlcNAc(b1-2)Man(a1-6)]Man(b1-4)GlcNAc(b1-4)GlcNAc
In short: as §1

[25] = biological target: Gal(a1-3)Gal(b1-4)GlcNAc(b1-3)GalNAc
In short: as §1

[26] = biological target: Gal(a1-3)Gal(b1-4)GlcNAc(b1-6)GalNAc
In short: as §1

[27] = biological target: Gal(a1-3)Gal(b1-4)[Fuc(a1-3)]GlcNAc
In short: as §1

[28] = biological target: Gal(a1-3)Gal(b1-4)[Fuc(a1-3)]GlcNAc(b1-2)Man(a1-3)[Gal(a1-3)Gal(b1-4)[Fuc(a1-3)]GlcNAc(b1-2)Man(a1-6)]Man(b1-4)GlcNAc(b1-4)GlcNAc
In short: as §1

Gal(a1-3)GalNAc = biological target: Gal(a1-3)GalNAc
In short: as §1

[29] = biological target: Gal(a1-3)[Gal(a1-4)]Gal(b1-4)GlcNAc
In short: as §1

[30] = biological target: Gal(a1-4)Gal(b1-3)GlcNAc(b1-2)Man(a1-3)[Gal(a1-4)Gal(b1-3)GlcNAc(b1-2)Man(a1-6)]Man(b1-4)GlcNAc(b1-4)GlcNAc
In short: as §1

Gal(a1-4)Gal(b1-4)Glc = biological target: Gal(a1-4)Gal(b1-4)Glc
In short: as §1

Gal(a1-4)Gal(b1-4)GlcNAc = biological target: Gal(a1-4)Gal(b1-4)GlcNAc
In short: as §1

[31] = biological target: Gal(a1-4)Gal(b1-4)GlcNAc(b1-2)Man(a1-3)[Gal(a1-4)Gal(b1-4)GlcNAc(b1-2)Man(a1-6)]Man(b1-4)GlcNAc(b1-4)GlcNAc
In short: as §1

[32] = biological target: Gal(a1-4)Gal(b1-4)GlcNAc(b1-3)Gal(b1-4)Glc
In short: as §1

Gal(a1-4)GlcNAc = biological target: Gal(a1-4)GlcNAc
In short: as §1

Gal(a1-6)Glc = biological target: Gal(a1-6)Glc
In short: as §1

B1: Nc3LysM-2 (protein)
chain: AHVLQARQSVSCDFATAANTGDTCASFAAAWGITEAAFAKLNPGVSCPGNLIAGSEYCVIGTVSTGAPTTTKAATTSTTPPTTTTTTKATTLSTSTTSVSPTGPSPQMPSITSTCNKFYQVQSGDGCWSIEQAQGVSASDFMAWNKAVDAQCDNLWLGYYVCVGVKGGSSPPPTTTTKPASSSAPTPQMPNTVSNCKKFHKVVSGDGCWAIEQAAGISASDFAKWNPYVDAACDNLWLGYYVCIGV
Fuc(a1-3)GlcNAc
  glycan array binding signal (z-score): -0.094
[1]
  glycan array binding signal (z-score): -0.823
[2]
  glycan array binding signal (z-score): -0.073
[3]
  glycan array binding signal (z-score): -1.36
[4]
  glycan array binding signal (z-score): 0.528
[5]
  glycan array binding signal (z-score): -0.121
[6]
  glycan array binding signal (z-score): -1.41
[7]
  glycan array binding signal (z-score): -0.714
[8]
  glycan array binding signal (z-score): 1.02
[9]
  glycan array binding signal (z-score): -0.088
[10]
  glycan array binding signal (z-score): -1.23
[11]
  glycan array binding signal (z-score): -0.829
[12]
  glycan array binding signal (z-score): -1.07
[13]
  glycan array binding signal (z-score): 0.532
[14]
  glycan array binding signal (z-score): -0.279
[15]
  glycan array binding signal (z-score): 0.033
[16]
  glycan array binding signal (z-score): -0.263
[17]
  glycan array binding signal (z-score): -1.46
Fuc(a1-4)GlcNAc
  glycan array binding signal (z-score): -0.095
Fuc(b1-3)GlcNAc
  glycan array binding signal (z-score): 0.734
Gal(a1-2)Gal
  glycan array binding signal (z-score): -1.15
Gal(a1-3)Gal
  glycan array binding signal (z-score): 0.678
Gal(a1-3)Gal(b1-3)GlcNAc
  glycan array binding signal (z-score): -0.135
[18]
  glycan array binding signal (z-score): -1.17
[19]
  glycan array binding signal (z-score): -1.13
[20]
  glycan array binding signal (z-score): -0.589
[21]
  glycan array binding signal (z-score): -0.054
[22]
  glycan array binding signal (z-score): -0.092
Gal(a1-3)Gal(b1-4)Glc
  glycan array binding signal (z-score): -1.12
Gal(a1-3)Gal(b1-4)GlcNAc
  glycan array binding signal (z-score): 0.363
[23]
  glycan array binding signal (z-score): -0.456
[24]
  glycan array binding signal (z-score): 0.002
[25]
  glycan array binding signal (z-score): -1.6
[26]
  glycan array binding signal (z-score): -1.26
[27]
  glycan array binding signal (z-score): -1.39
[28]
  glycan array binding signal (z-score): -0.056
Gal(a1-3)GalNAc
  glycan array binding signal (z-score): 0.707
[29]
  glycan array binding signal (z-score): -1.03
[30]
  glycan array binding signal (z-score): -0.185
Gal(a1-4)Gal(b1-4)Glc
  glycan array binding signal (z-score): 1.39
Gal(a1-4)Gal(b1-4)GlcNAc
  glycan array binding signal (z-score): -0.363
[31]
  glycan array binding signal (z-score): 0.285
[32]
  glycan array binding signal (z-score): -0.021
Gal(a1-4)GlcNAc
  glycan array binding signal (z-score): 0.991
Gal(a1-6)Glc
  glycan array binding signal (z-score): 0.44

— the supplement of paper PMC8728848
